For assay [1], the target named is CD40 on blood cells of type-I diabetic and non-diabetic (control) subjects (Homo sapiens (Human)) (UniProt P25942). Nature of the assay: whole blood incubated with biotin-conjugated 15-mer peptide, HRP-avidin, absorbance at 405 nm; sheet title 'ELISA measuring CD40 in blood samples'. In general terms: ELISA stands for enzyme-linked immunosorbent assay.
Assay [2] shares this target. Nature of the assay: whole blood incubated with biotin-conjugated peptide, HRP-avidin, absorbance at 405 nm.

Protein sequences, listed by entry. Tags and fused reporters are not part of them. Lines headed by an entry give the natural chain unless they say otherwise; changes in a name come on top.
UniProt P25942: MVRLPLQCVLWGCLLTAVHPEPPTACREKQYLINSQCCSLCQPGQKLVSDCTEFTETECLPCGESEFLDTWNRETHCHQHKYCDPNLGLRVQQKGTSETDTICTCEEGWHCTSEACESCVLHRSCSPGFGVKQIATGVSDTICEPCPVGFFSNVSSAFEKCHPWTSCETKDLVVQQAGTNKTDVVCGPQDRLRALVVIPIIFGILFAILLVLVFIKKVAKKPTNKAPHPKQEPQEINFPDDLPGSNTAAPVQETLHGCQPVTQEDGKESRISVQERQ

No constants are given. Whether binding was seen depends on the method and setting. Some results given as binding are weak or reduced against the parent protein; the word gives no strength.

One molecule from patent publication US20220106381A1 can be followed below.

B1: biotin-conjugated 15-mer peptide from CD154 (peptide)
peptide: VLQWAKKGYYTMKSK
modifications: biotin-conjugated (position not given)
Take B1: the binding entry in assay [1] and in assay [2] was “binds” throughout.
